Consider 68 substances from patent US11433099B2, “Immunotherapy with B*08 restricted peptides and combination of peptides against cancers and related methods” (Immatics Biotechnologies GmbH, priority 2018, dated 2022).

The first data set deals with HLA peptide pools from tumor and normal tissue samples. Description: Identification and relative LC-MS quantitation of HLA-presented tumor associated peptides (presentation profiles). On the set-up: species or system human. To be noted: FIG. 1N; N=204 normal samples, N=206 tumor samples.
For “EEFLTPKKL (listed as Homo sapiens) [SEQ ID NO: 290]”, the “over-presentation in HLA-B*44 cancer tissues compared to a panel of HLA-B*44 normal samples” value is “over-presentation”.

The data set is the same for the next values; noted with them: FIGS. 1A to 1L; N=38 normal samples, N=91 tumor samples.
With “ELFLHPVL (listed as Homo sapiens) [SEQ ID NO: 29]”, the “over-presentation in HLA-B*08 cancer tissues compared to a panel of HLA-B*08 normal samples” value is listed as “over-presentation”. On to “RILKRFLAC (listed as Homo sapiens) [SEQ ID NO: 21]”, for which the “over-presentation in HLA-B*08 cancer tissues compared to a panel of HLA-B*08 normal samples” value is recorded as “over-presentation”. As to “MAPLKMLAL (listed as Homo sapiens) [SEQ ID NO: 11]”, the “over-presentation in HLA-B*08 cancer tissues compared to a panel of HLA-B*08 normal samples” value is given as “over-presentation”. As for “EVYLRMYQL (listed as Homo sapiens) [SEQ ID NO: 80]”, the “over-presentation in HLA-B*08 cancer tissues compared to a panel of HLA-B*08 normal samples” value is “over-presentation”. As to “DLRNKIIAA (listed as Homo sapiens) [SEQ ID NO: 46]”, the “over-presentation in HLA-B*08 cancer tissues compared to a panel of HLA-B*08 normal samples” value was “over-presentation”.

Staying with this data set, now noted: FIGS. 1M and 1O; N=592 normal samples, N=711 tumor samples.
For the substance “YVYANHFTEA (listed as Homo sapiens) [SEQ ID NO: 291]”, the “over-presentation in HLA-A*02 cancer tissues compared to a panel of HLA-A*02 normal samples” value is on record as “over-presentation”.

Staying with this data set, now noted: Table 8; cancer entities on which the peptide was presented.
On to “289 (SLAESEASL; listed as Homo sapiens) [compound 289]”, for which the “Peptide Presentation on cancer entities” value is “CCC, GBC, HCC, HNSCC, NSCLCadeno, NSCLCsquam, NSCLCother, OC, OSCAR, PACA, UEC”.

The same data set, now with this note: cancer entities on which the peptide was found presented (Table 8A); value = entity abbreviations.
For the substance “70 (RPKGTPPL; listed as Homo sapiens) [compound 70]”, the “Peptide Presentation on cancer entities” value is “BRCA, CCC, CRC, GBM, GC, HNSCC, MEL, NHL, NSCLCadeno, NSCLCsquam, RCC, UBC, UEC”. The same measure, in the same setting: then “112 (NALDPLSAL; listed as Homo sapiens) [compound 112]”, with “GBM, NSCLCadeno, OSCAR”. As for “190 (ELLNRIYF; listed as Homo sapiens) [compound 190]”, the “Peptide Presentation on cancer entities” value is on record as “MEL”. As for “82 (SIRKRPML; listed as Homo sapiens) [compound 82]”, the “Peptide Presentation on cancer entities” value is listed as “NSCLCother”. For “23 (DIKKTNESL; listed as Homo sapiens) [compound 23]”, the “Peptide Presentation on cancer entities” value is listed as “BRCA, CLL, HNSCC, NHL, NSCLCsquam”.

For “58 (LPKKMKLL; listed as Homo sapiens) [compound 58]”, the “Peptide Presentation on cancer entities” value is listed as “PACA”. Consider “245 (GPRGPSSGHPL; listed as Homo sapiens) [compound 245]”, for which the “Peptide Presentation on cancer entities” value is given as “MEL”. With “87 (QILQHHVL; listed as Homo sapiens) [compound 87]”, the “Peptide Presentation on cancer entities” value was “GBC, HNSCC”. On to “243 (EGVPPGTVL; listed as Homo sapiens) [compound 243]”, for which the “Peptide Presentation on cancer entities” value is reported as “NSCLCsquam”.

On to “203 (DVYTQVSAF; listed as Homo sapiens) [compound 203]”, for which the “Peptide Presentation on cancer entities” value is listed as “AML”. Take “50 (TLRLLVAAL; listed as Homo sapiens) [compound 50]”: the “Peptide Presentation on cancer entities” value is reported as “CCC, HNSCC, OSCAR, UBC”.

Turning to “214 (DAPRHRLL; listed as Homo sapiens) [compound 214]”, the “Peptide Presentation on cancer entities” value is listed as “NSCLCadeno”. For “184 (DRLKPLKM; listed as Homo sapiens) [compound 184]”, the “Peptide Presentation on cancer entities” value is given as “MEL”. Still for that read-out and setting: next, “143 (DADLREQAL; listed as Homo sapiens) [compound 143]”: “HNSCC, NSCLCsquam, PACA”; “68 (DLKIPRYPV; listed as Homo sapiens) [compound 68]”: “HNSCC, NSCLCadeno”.

Turning to “124 (HSWTRTSV; listed as Homo sapiens) [compound 124]”, the “Peptide Presentation on cancer entities” value is given as “PRCA”. With “72 (LPLAHHIQL; listed as Homo sapiens) [compound 72]”, the “Peptide Presentation on cancer entities” value is given as “HNSCC”. Regarding “217 (ETIKGHSVRL; listed as Homo sapiens) [compound 217]”, the “Peptide Presentation on cancer entities” value was “HNSCC”. As for “175 (MRFQQFLFA; listed as Homo sapiens) [compound 175]”, the “Peptide Presentation on cancer entities” value was “HNSCC”. In the case of “117 (VGPNGFKSL; listed as Homo sapiens) [compound 117]”, the “Peptide Presentation on cancer entities” value was “PACA, UEC”. Regarding “113 (MEKGLASL; listed as Homo sapiens) [compound 113]”, the “Peptide Presentation on cancer entities” value was “HNSCC”.

For the substance “133 (QATPRVRIL; listed as Homo sapiens) [compound 133]”, the “Peptide Presentation on cancer entities” value is “MEL, NSCLCsquam, UEC”.

On to “16 (NRKPRTPF; listed as Homo sapiens) [compound 16]”, for which the “Peptide Presentation on cancer entities” value is listed as “UEC”. Still for that read-out and setting: next, “173 (YPLLKDPSL; listed as Homo sapiens) [compound 173]”: “CCC, PACA, SCLC”; “202 (RIPEKASFL; listed as Homo sapiens) [compound 202]”: “HCC”. Still for that read-out and setting: next, “248 (SEVNKHETAL; listed as Homo sapiens) [compound 248]”: “HNSCC”; “85 (QKPRKKKL; listed as Homo sapiens) [compound 85]”: “CLL”; “12 (DFYLRSSAF; listed as Homo sapiens) [compound 12]”: “NSCLCsquam”.

With “163 (EVMAQFKEI; listed as Homo sapiens) [compound 163]”, the “Peptide Presentation on cancer entities” value is “OSCAR, UBC”.

Regarding “80 (EVYLRMYQL; listed as Homo sapiens) [compound 80]”, the “Peptide Presentation on cancer entities” value is “BRCA, CCC, CLL, HNSCC, MEL, NHL, NSCLCadeno, NSCLCother, NSCLCsquam, OC, SCLC, UEC”. Still for that read-out and setting: next, “162 (LFKQTKINL; listed as Homo sapiens) [compound 162]”: “NSCLCsquam”; “191 (RPLKPGEVL; listed as Homo sapiens) [compound 191]”: “BRCA”.

For the substance “43 (DLKKLVDSL; listed as Homo sapiens) [compound 43]”, the “Peptide Presentation on cancer entities” value is “CRC, NSCLCother, UBC”. As to “74 (RLKLRYEGL; listed as Homo sapiens) [compound 74]”, the “Peptide Presentation on cancer entities” value is listed as “CLL”. For “45 (RLKVALSTL; listed as Homo sapiens) [compound 45]”, the “Peptide Presentation on cancer entities” value is on record as “CCC, CLL, MEL, NSCLCadeno, OSCAR, SCLC, UEC”. “194 (RAIEHVLQV; listed as Homo sapiens) [compound 194]”: the “Peptide Presentation on cancer entities” value is given as “NSCLCother”. On to “19 (FTLLRRLSL; listed as Homo sapiens) [compound 19]”, for which the “Peptide Presentation on cancer entities” value is reported as “MEL”.

Turning to “60 (MLHIKKAEV; listed as Homo sapiens) [compound 60]”, the “Peptide Presentation on cancer entities” value is “MEL”.

Turning to “171 (FPSQVPKQVL; listed as Homo sapiens) [compound 171]”, the “Peptide Presentation on cancer entities” value is on record as “NSCLCother”. Consider “204 (MSPLLRSI; listed as Homo sapiens) [compound 204]”, for which the “Peptide Presentation on cancer entities” value is on record as “BRCA, CCC, CRC, GBC, GC, HCC, HNSCC, MEL, NSCLCother, NSCLCsquam, PACA, UEC”. “209 (SRFGKFVQL; listed as Homo sapiens) [compound 209]”: the “Peptide Presentation on cancer entities” value was “GC, HNSCC and UEC”. Take “83 (FVLLRSVDL; listed as Homo sapiens) [compound 83]”: the “Peptide Presentation on cancer entities” value was “BRCA, CCC, CLL, NHL, NSCLCother”. For “76 (HPRLKVNLL; listed as Homo sapiens) [compound 76]”, the “Peptide Presentation on cancer entities” value is “CCC, NSCLCother, OSCAR, SCLC, UBC, UEC”. In the case of “210 (QPNTHQLL; listed as Homo sapiens) [compound 210]”, the “Peptide Presentation on cancer entities” value is “HNSCC”. Consider “131 (MSTKTTSI; listed as Homo sapiens) [compound 131]”, for which the “Peptide Presentation on cancer entities” value is listed as “GBM, PACA, RCC”.

“233 (DVKLVFVM; listed as Homo sapiens) [compound 233]”: the “Peptide Presentation on cancer entities” value is recorded as “NHL, NSCLCother”. For the substance “51 (ERRVKVSSL; listed as Homo sapiens) [compound 51]”, the “Peptide Presentation on cancer entities” value was “UEC”. As for “8 (FVRPKLVTI; listed as Homo sapiens) [compound 8]”, the “Peptide Presentation on cancer entities” value was “GBM”.

For the substance “155 (LPASFPAVL; listed as Homo sapiens) [compound 155]”, the “Peptide Presentation on cancer entities” value is listed as “NSCLCother”.

For the substance “27 (WVLTNIVAL; listed as Homo sapiens) [compound 27]”, the “Peptide Presentation on cancer entities” value is reported as “NSCLCadeno, NSCLCsquam”.

On to “241 (NAYEAPSI; listed as Homo sapiens) [compound 241]”, for which the “Peptide Presentation on cancer entities” value is recorded as “GBM”.

In the case of “238 (IPLAIARL; listed as Homo sapiens) [compound 238]”, the “Peptide Presentation on cancer entities” value is on record as “NSCLCsquam”. As to “71 (HIRIKHTF; listed as Homo sapiens) [compound 71]”, the “Peptide Presentation on cancer entities” value is listed as “HNSCC, NHL, NSCLCadeno, NSCLCsquam”. Still for that read-out and setting: next, “52 (ELILKHSL; listed as Homo sapiens) [compound 52]”: “HNSCC, NHL, NSCLCadeno, NSCLCother”; “193 (LGGLRLTAL; listed as Homo sapiens) [compound 193]”: “NSCLCadeno”. As for “240 (KVIDRKVEL; listed as Homo sapiens) [compound 240]”, the “Peptide Presentation on cancer entities” value was “NSCLCadeno, NSCLCsquam”.

“181 (SIRSSYSRF; listed as Homo sapiens) [compound 181]”: the “Peptide Presentation on cancer entities” value is “UEC”. As for “65 (NLLMRNVL; listed as Homo sapiens) [compound 65]”, the “Peptide Presentation on cancer entities” value is listed as “NSCLCsquam”. Consider “165 (QNSLRHNL; listed as Homo sapiens) [compound 165]”, for which the “Peptide Presentation on cancer entities” value is “CCC”.

The same data set, now with this note: running text (Table 8A examples; LC-MS identification on tumor samples).
“QVMPKTGL (listed as Homo sapiens) [SEQ ID NO: 4]”: the “presentation on various cancer entities” value is “hepatocellular carcinoma, melanoma and esophagus cancer”.
